Measured values from PubChem BioAssay AID330 (DTP/NCI, 2004).
The list shows only some results of the screen, not a fair sample: it gathers tests that were run many times, whatever their T/C, doses with no T/C, and many T/C values between a quarter and a half above the control. Further doses and runs are listed elsewhere. T/C: endpoint of the treated group in % of that of the vehicle group. Some doses have a count of surviving animals in place of a T/C: the source holds a T/C of zero for them, seemingly a mark for toxic or unscored doses. Some doses without a T/C left all or most animals alive at the check, yet need not have been tolerated: the source hardly ever lists a survival T/C far under the control, and the zero likely stands for such cases as well. Counts of survivors are from the toxicity check (mostly the fifth day) where no day follows; animals may have died later. Schedule codes are those of the source, taken here to give the interval after Q, in days (D) or hours (H), and the number of doses after X. Some structures stand for samples that the source files as different forms (salt, stereo form or complex); doses refer to the form tested. Some doses were run more than once; the results are listed from low to high. For survival time, this PubChem deposit counts one and a half times the control or more as active, and values a quarter to a half above the control carry no call in these data; other NCI protocols may use other cut-offs. Some T/C values are followed by the survivors on the day toxicity was checked, most often the fifth; where none is given, no animal had died by that day. Marks such as (2×) give the number of equal values in this list.

System: P388 leukemia ip, CD2F1 mice, survival T/C
Assay: NCI In Vivo Anticancer Drug Screen. Data for tumor model P388 Leukemia (intraperitoneal) in CD2F1 (CDF1) mice
Details: T/C endpoint: median survival time, higher T/C = longer survival
[1] = dose: 10.0 mg/kg/injection, schedule: Q01DX009 (ip), vehicle: water

For `COc1cc2c[n+](C)c3c4cc5c(cc4ccc3c2cc1OC)OCO5`, the T/C (dose: 1.0 mg/kg/injection, schedule: Q01DX009 (ip), vehicle: saline) was 133 % of control, the T/C (dose: 1.0 mg/kg/injection, schedule: Q01DX009 (ip), vehicle: water) was 107, 123, 126, 129, 141 % of control and the T/C (dose: 1.0 mg/kg/injection, schedule: Q03HX016 (ip), vehicle: saline with Tween-80) was 131 % of control. For the same molecule, the T/C (dose: 1.0 mg/kg/injection, schedule: Q03HX024 (ip), vehicle: saline with Tween-80) was 134 % of control, the T/C (dose: 1.25 mg/kg/injection, schedule: Q01DX009 (ip), vehicle: DMSO) was 126 % of control and the T/C (dose: 1.25 mg/kg/injection, schedule: Q01DX009 (ip), vehicle: saline) was 125 % of control. The T/C (dose: 1.25 mg/kg/injection, schedule: Q01DX009 (ip), vehicle: water) was 109, 113, 114, 115 (2×), 119, 123, 125, 126, 136 % of control, the T/C (dose: 2.0 mg/kg/injection, schedule: Q01DX009 (ip), vehicle: distilled water + Tween-80) was 128, 129, 131, 135, 136 % of control and the T/C (dose: 2.0 mg/kg/injection, schedule: Q01DX009 (ip), vehicle: saline) was 145 % of control. For the same molecule, the T/C (dose: 2.0 mg/kg/injection, schedule: Q01DX009 (ip), vehicle: water, evaluated on day 30) was 109, 129, 131, 132, 133, 137 % of control, the T/C (dose: 2.0 mg/kg/injection, schedule: Q01DX009 (ip), vehicle: water, evaluated on day 60) was 118 % of control and the T/C (dose: 2.0 mg/kg/injection, schedule: Q03HX016 (ip), vehicle: saline with Tween-80) was 145 % of control. For the same molecule, the T/C (dose: 2.0 mg/kg/injection, schedule: Q03HX024 (ip), vehicle: water) was 127 % of control, the T/C (dose: 2.5 mg/kg/injection, schedule: Q01DX009 (ip), vehicle: DMSO) was 134 and 141 % of control (2×) and the T/C (dose: 2.5 mg/kg/injection, schedule: Q01DX009 (ip), vehicle: saline) was 130 and 140 % of control. For the same molecule, the T/C (dose: 2.5 mg/kg/injection, schedule: Q01DX009 (ip), vehicle: water) was 107, 116, 120, 122, 123, 129, 132, 136, 148, 151 % of control, the T/C (dose: 3.12 mg/kg/injection, schedule: Q01DX009 (ip), vehicle: water) was 140 [9 of 10 alive] and 147 % of control and the T/C (dose: 4.0 mg/kg/injection, schedule: Q01DX005 (ip), vehicle: distilled water + Tween-80) was 129 % of control. The T/C (dose: 4.0 mg/kg/injection, schedule: Q01DX005 (ip), vehicle: saline) was 129 % of control, the T/C (dose: 4.0 mg/kg/injection, schedule: Q01DX009 (ip), vehicle: distilled water + Tween-80) was 133, 134, 139, 140, 152 % of control and the T/C (dose: 4.0 mg/kg/injection, schedule: Q01DX009 (ip), vehicle: water, evaluated on day 30) was 122, 137, 140, 141, 143, 148 % of control. For the same molecule, the T/C (dose: 4.0 mg/kg/injection, schedule: Q01DX009 (ip), vehicle: water, evaluated on day 60) was 122 % of control, the T/C (dose: 4.0 mg/kg/injection, schedule: Q03HX008 (ip), vehicle: saline with Tween-80) was 135 % of control and the T/C (dose: 4.0 mg/kg/injection, schedule: Q03HX016 (ip), vehicle: saline with Tween-80) was 147 % of control. The T/C (dose: 4.0 mg/kg/injection, schedule: Q03HX024 (ip), vehicle: saline with Tween-80) was 147 % of control, the T/C (dose: 4.0 mg/kg/injection, schedule: Q03HX024 (ip), vehicle: water) was 130 % of control and the T/C (dose: 4.0 mg/kg/injection, schedule: Q04DX003 (ip), vehicle: other) was 125 % of control. The T/C (dose: 5.0 mg/kg/injection, schedule: Q01DX009 (ip), vehicle: DMSO) was 145 and 148 % of control, the T/C (dose: 5.0 mg/kg/injection, schedule: Q01DX009 (ip), vehicle: saline) was 136 and 140 % of control and the T/C (dose: 5.0 mg/kg/injection, schedule: Q01DX009 (ip), vehicle: water) was 113 [5 of 6 alive], 118, 123, 123 [5 of 6 alive], 124, 131, 133, 137, 147, 151, 155 % of control. The T/C (dose: 6.25 mg/kg/injection, schedule: Q01DX009 (ip), vehicle: saline with Tween-80) was 142 % of control, the T/C (dose: 6.25 mg/kg/injection, schedule: Q01DX009 (ip), vehicle: water) was 141 and 149 % of control and the T/C (dose: 8.0 mg/kg/injection, schedule: Q01DX005 (ip), vehicle: distilled water + Tween-80) was 134 % of control. For the same molecule, the T/C (dose: 8.0 mg/kg/injection, schedule: Q01DX005 (ip), vehicle: saline) was 131 % of control, the T/C (dose: 8.0 mg/kg/injection, schedule: Q01DX009 (ip), vehicle: distilled water + Tween-80) was 139, 144 (2×), 149, 150 % of control and the T/C (dose: 8.0 mg/kg/injection, schedule: Q01DX009 (ip), vehicle: water, evaluated on day 30) was 117, 137, 142, 146, 151, 157 % of control. For the same molecule, the T/C (dose: 8.0 mg/kg/injection, schedule: Q01DX009 (ip), vehicle: water, evaluated on day 60) was 130 % of control, the T/C (dose: 8.0 mg/kg/injection, schedule: Q03HX008 (ip), vehicle: saline with Tween-80) was 142 % of control and the survivor count (dose: 8.0 mg/kg/injection, schedule: Q03HX024 (ip), vehicle: water) was 8 of 10. For the same molecule, the T/C (dose: 8.0 mg/kg/injection, schedule: Q04DX003 (ip), vehicle: other) was 133 and 141 % of control, the T/C (dose: 8.0 mg/kg/injection, schedule: Q04DX003 (ip), vehicle: saline with Tween-80) was 127 % of control and the T/C (dose: 8.0 mg/kg/injection, schedule: Q08DX002 (ip), vehicle: saline with Tween-80) was 126 % of control. For the same molecule, the T/C (dose: 10.0 mg/kg/injection, schedule: Q01DX005 (ip), vehicle: Klucel (hydroxypropylcellulose) (HPC), evaluated on day 30) was 93, 94, 106, 122, 123 (2×), 132, 133 (2×), 134, 138 (3×), 139 (2×), 141 (2×), 143, 144, 150, 152, 153 (3×), 154, 155, 156, 157, 164, 166, 174, 176 % of control, the T/C (dose: 10.0 mg/kg/injection, schedule: Q01DX005 (ip), vehicle: Klucel (hydroxypropylcellulose) (HPC), evaluated on day 35) was 151 % of control and the T/C (dose: 10.0 mg/kg/injection, schedule: Q01DX009 (ip), vehicle: DMSO) was 144 % of control. The T/C (dose: 10.0 mg/kg/injection, schedule: Q01DX009 (ip), vehicle: Klucel (hydroxypropylcellulose) (HPC), evaluated on day 30) was 102, 126, 127 (2×), 128, 132, 133, 134, 139, 141 (2×), 142, 144 (2×), 150 (2×), 151, 155, 159 (3×), 160, 161, 163, 164 (3×), 165, 169, 171, 178 % of control, the T/C (dose: 10.0 mg/kg/injection, schedule: Q01DX009 (ip), vehicle: Klucel (hydroxypropylcellulose) (HPC), evaluated on day 35) was 145 and 151 % of control and the survivor count (dose: 10.0 mg/kg/injection, schedule: Q01DX009 (ip), vehicle: Klucel (hydroxypropylcellulose) (HPC)) was 3 of 6 and 6 of 6. For the same molecule, the T/C (dose: 10.0 mg/kg/injection, schedule: Q01DX009 (ip), vehicle: saline) was 146 and 147 % of control, the T/C [1] was 103, 125, 129, 140, 142, 152, 161 % of control (2×) and the survivor count [1] was 5 of 6 and 6 of 6. For the same molecule, the T/C (dose: 12.5 mg/kg/injection, schedule: Q01DX009 (ip), vehicle: saline with Tween-80) was 126 % of control, the T/C (dose: 16.0 mg/kg/injection, schedule: Q01DX005 (ip), vehicle: distilled water + Tween-80) was 139 % of control and the T/C (dose: 16.0 mg/kg/injection, schedule: Q01DX005 (ip), vehicle: saline) was 140 % of control. The T/C (dose: 16.0 mg/kg/injection, schedule: Q01DX009 (ip), vehicle: distilled water + Tween-80) was 95, 146, 152, 155, 170 % of control, the T/C (dose: 16.0 mg/kg/injection, schedule: Q01DX009 (ip), vehicle: water, evaluated on day 30) was 102, 146, 159, 172, 173, 185 % of control and the T/C (dose: 16.0 mg/kg/injection, schedule: Q01DX009 (ip), vehicle: water, evaluated on day 60) was 129 % of control. The survivor count (dose: 16.0 mg/kg/injection, schedule: Q01DX009 (sc), vehicle: water) was 10 of 10, the survivor count (dose: 16.0 mg/kg/injection, schedule: Q03HX008 (ip), vehicle: water) was 0 of 10 and the T/C (dose: 16.0 mg/kg/injection, schedule: Q03HX016 (ip), vehicle: saline with Tween-80) was 148 % of control. For the same molecule, the survivor count (dose: 16.0 mg/kg/injection, schedule: Q03HX016 (ip), vehicle: water) was 0 of 10, the T/C (dose: 16.0 mg/kg/injection, schedule: Q03HX024 (ip), vehicle: saline with Tween-80) was 138 % of control and the survivor count (dose: 16.0 mg/kg/injection, schedule: Q03HX024 (ip), vehicle: water) was 0 of 10. For the same molecule, the T/C (dose: 16.0 mg/kg/injection, schedule: Q04DX003 (ip), vehicle: other) was 133 and 142 % of control, the T/C (dose: 16.0 mg/kg/injection, schedule: Q04DX003 (ip), vehicle: saline with Tween-80) was 132 % of control and the T/C (dose: 16.0 mg/kg/injection, schedule: Q08DX002 (ip), vehicle: saline with Tween-80) was 132 % of control. The T/C (dose: 20.0 mg/kg/injection, schedule: Q01DX005 (ip), vehicle: Klucel (hydroxypropylcellulose) (HPC), evaluated on day 30) was 90, 123, 129, 132, 140, 142 (2×), 146 (2×), 147, 148 (2×), 150, 151, 153 (2×), 154, 156 (2×), 157 (2×), 160 [5 of 6 alive], 162, 163, 169, 170, 171, 172, 175, 175 [5 of 6 alive], 180 % of control, the T/C (dose: 20.0 mg/kg/injection, schedule: Q01DX005 (ip), vehicle: Klucel (hydroxypropylcellulose) (HPC), evaluated on day 35) was 161 % of control and the survivor count (dose: 20.0 mg/kg/injection, schedule: Q01DX005 (ip), vehicle: Klucel (hydroxypropylcellulose) (HPC)) was 3 of 3. For the same molecule, the T/C (dose: 20.0 mg/kg/injection, schedule: Q01DX009 (ip), vehicle: Klucel (hydroxypropylcellulose) (HPC), evaluated on day 30) was 112, 127, 128, 129, 135, 139, 142, 145, 147, 150, 155, 156, 158 (2×), 160, 161 (2×), 163, 164, 165, 168 [5 of 6 alive], 170, 172, 173, 175 (2×), 181, 192, 194, 199, 200, 218, 220 % of control, the T/C (dose: 20.0 mg/kg/injection, schedule: Q01DX009 (ip), vehicle: Klucel (hydroxypropylcellulose) (HPC), evaluated on day 35) was 169 and 174 % of control and the T/C (dose: 20.0 mg/kg/injection, schedule: Q01DX009 (ip), vehicle: saline) was 148 % of control. The T/C (dose: 20.0 mg/kg/injection, schedule: Q01DX009 (ip), vehicle: water) was 145, 148, 151, 158, 176 % of control.
